In patent US20090085008A1, “Cellulose compound composition and cellulose compound film” (FUJIFILM Corporation, priority 2005, published 2009):

Assay: Re and Rth retardation values of stretched cellulose acetate film containing the additive
Type: physicochemical
Details: for Re / Rth: film 92 μm, orientation ratio 20% at 130° C., wavelength 633 nm
[1] = additive 2 mass parts per 100 mass parts cellulose acetate
[2] = additive 5 mass parts per 100 mass parts cellulose acetate

## COc1ccc(Nc2nc(Nc3cccc(C)c3)nc(Nc3cccc(C)c3)n2)cc1 [Compound 1 for comparison]
[1]
  Re/Rth: 0.17
  Re: 20 nm
  Rth: 115 nm
[2]
  Re/Rth: 0.21
  Re: 38 nm
  Rth: 180 nm
